{"source": "PubChem BioAssay AID504774 (Drosophila RNAi Screening Center, 2011)", "screen": "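Fly genes whose loss alters survival after alkylation damage to DNA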 (primary screen)", "cells": "Drosophila Kc167 cells", "knock-down reagent": "long dsRNA against Drosophila genes, about 0.25 µg dsRNA per well", "duration": "about 6 days: 3 days knock-down, then 3 days with or without MMS", "challenge": "methyl methanesulphonate 0.004% (w/v) for 3 days after knock-down", "measured": "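ATP-dependent luminescence as a measure of live cells in MMS-exposed wells, quantile normalised within each plate, with replicate values also given as a mean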", "direction": "mean viability with MMS: higher = more surviving cells after MMS", "note": "The screen tested about 23,000 reagents; this is an unselected part of those that have a named target and a result. 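Values are quantile-normalised luminescence on an arbitrary scale; higher means more cells surviving MMS.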 The numbers tell different reagents against one gene apart. Further read-outs or replicates are left out here. No sequences are given here."}
{"target":"wol (wollknaeuel)","reagent":1,"mean viability with MMS":3.59e6}
{"target":"sNPF-R (short neuropeptide F receptor)","reagent":1,"mean viability with MMS":3.46e6}
{"target":"Fpgs2 (Folylpolyglutamate synthase 2)","reagent":1,"mean viability with MMS":3.68e6}
{"target":"Hydr1 (alpha/beta hydrolase 1)","reagent":1,"mean viability with MMS":1.79e6}
{"target":"BCL7-like","reagent":1,"mean viability with MMS":3.63e6}
{"target":"Icmt (Isoprenylcysteine carboxyl methyltransferase)","reagent":1,"mean viability with MMS":3.63e6}
{"target":"jing","reagent":1,"mean viability with MMS":3.51e6}
{"target":"jing","reagent":2,"mean viability with MMS":3.55e6}
{"target":"jing","reagent":3,"mean viability with MMS":3.48e6}
{"target":"amon (amontillado)","reagent":1,"mean viability with MMS":3.45e6}
{"target":"amon (amontillado)","reagent":2,"mean viability with MMS":3.75e6}
{"target":"DENR (Density regulated protein)","reagent":1,"mean viability with MMS":3.79e6}
{"target":"Cubn (Cubilin)","reagent":1,"mean viability with MMS":3.52e6}
{"target":"Vlet (Valette)","reagent":1,"mean viability with MMS":3.51e6}
